Assay results as given in PubChem BioAssay AID1347423 (Functional Genomics Laboratory (NCATS/FGL), 2020).
The whole screen tested about 52,000 sequences, of which about 210 (0.4%) were called active.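 The calls were made as follows: active = gene whose silencing raises cell survival under the drug, median off-target-corrected z-score across its silencing RNAs 2 or more; inactive = the rest.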 The list shows a part of the results.

Assay: Resistance to Poly (ADP-Ribose) Polymerase inhibitor: Gene Identification via Genome-wide siRNA Screen
Details: mouse BRCA2 R2336H ES cells, olaparib, CellTiter-Glo viability; active compounds read high
In short: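 Mouse BRCA2 R2336H ES cells were reverse-transfected with siRNA (20 nM final), treated at 48 h with 500 nM olaparib, and read by CellTiter-Glo after 72 h. Scores: MAD-based z per siRNA, median per gene, seed off-target correction.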

| Sequence | z-score |
| --- | --- |
| GGGACCAGAACAAGGUAGUTT against Olfr488 | inactive: 2.04 |
| CGUGGUAUGGUAAUGAUACTT against Scn4a | inactive: 0.415 |
| CCAUUGAUCUCAUCAACCCTT against 5730511K23Rik | inactive: -2.02 |
| GGCUUUUAGCCAGAAAGAATT against Zfp260 | inactive: 0.5 |
| GCUUUAUCGCAGAAAAGGUTT against Nova2 | inactive: -0.0254 |
| GGACACUUCCAAACUGACCTT against Tiparp | inactive: -0.00604 |
| GGACAAGAGACUUCAUAGCTT against Grpel2 | inactive: 0.54 |
| GGAUCUAAUAAACCAAGUGTT against Slc25a10 | inactive: -1.59 |
| GGCUAAUGAAGCACGCAGATT against 1300010A20Rik | inactive: 1.99 |
| GCAGCUAACAAAUGUCAGCTT against Popdc3 | inactive: 0.324 |
| GGACUAUAAAUGUAUUCUCTT against Tfpi2 | inactive: -0.935 |
| GGUAAAUAGUGACCAUGAATT against C330017I15Rik | inactive: 1.35 |
| GGAAAACUUUUCUGUCUGUTT against Dhx32 | inactive: 0.096 |
| GGGUUUAUCUUGAAGAAAATT against Cd48 | inactive: -0.222 |
| GGAAAACAAGAGGUGAUCUTT against 3110001I22Rik | inactive: 0.525 |
| GUCCUGAAGAAGCUCAAGATT against Cart | inactive: 1.03 |
| GUAAAUACACCCAAACUGATT against Olfr1281 | inactive: 0.117 |
| GGGUUUGUGGCUUCUUUUCTT against Ucp1 | inactive: 0.909 |
| GAGCUGUUGUAUCAACUCUTT against Rslcan24 | inactive: 0.578 |
| GCACAUCUCAUGAAGGAGGTT against Ppp3ca | inactive: 1.64 |
| GGGAUACCUCUGAGUGACUTT against A930027H06Rik | inactive: 0.0836 |
| GGACAGUCUACAUCUUUGUTT against AI428936 | inactive: -1.05 |
| GGAAAGCAUCUGCAUUAAATT against Mrpl18 | inactive: -0.206 |
| CCCGCUGAGAUACUCUGUATT against Olfr1395 | inactive: -0.904 |
| GGUGGAGAUCCGAAAGCAUTT against Ltk | inactive: 0.652 |
| GGACAGAUGACUUCAAUACTT against MP4 | inactive: 0.569 |
| GGGAGAACAGCGACAAACATT against Cbfb | inactive: -1.88 |
| CGAUCUGACAACUGAUAAGTT against Rad17 | inactive: -0.48 |
| GGAUAAUACAUCCCAAAACTT against Prkar2b | inactive: 2.74 |

Single values from the list:
Value for CGAUCUGACAACUGAUAAGTT against Rad17 under z-score: inactive: -0.48
Value for GGAAAACAAGAGGUGAUCUTT against 3110001I22Rik under z-score: inactive: 0.525
